PubChem BioAssay AID493246 | Drosophila RNAi Screening Center – 2011
Test: 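Genes fly cells need to grow and stay alive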 (primary screen). System: Drosophila Kc and S2R+ cells. Reagents: long dsRNA against Drosophila genes. Detection: 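Raw, unnormalised count of remaining cells in each well; per-plate z-scores of cell number underlie the calls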. Reading the numbers: Kc cell number and S2R+ cell number: higher = more cells remaining. Active means: 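Active when the per-plate z-score of cell number is 3 or more in the direction of fewer cells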.
The screen tested about 21,000 reagents; shown is an unselected part of those with a known target gene and a result. Of all reagents, 429 (2%) got an active call. 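Values are raw and not normalised between plates; calls rest on per-plate z-scores that were not deposited.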 Names joined by + are all predicted targets of the reagent. Not given: the amount of reagent, the time to read-out.

target gene,dsRNA,"Kc cell number, rep 1","Kc cell number, rep 2","S2R+ cell number, rep 1","S2R+ cell number, rep 2",Outcome
reb,DRSC06308,1.67e6,1.64e6,1.20e6,1.39e6,inactive
CR30029,DRSC06724,1.58e6,1.51e6,1.21e6,1.28e6,inactive
Rat1,DRSC02044,9.62e5,1.13e6,5.67e5,7.57e5,inactive
Uev1A,DRSC09763,1.46e6,1.47e6,1.41e6,1.28e6,inactive
skd,DRSC11898,1.42e6,1.45e6,1.37e6,1.42e6,inactive
Hsp67Bc,DRSC11193,1.49e6,1.58e6,1.24e6,1.22e6,inactive
CG32579,DRSC19872,1.51e6,1.53e6,1.20e6,1.29e6,inactive
CG34107,DRSC14554,1.52e6,1.51e6,1.26e6,1.36e6,inactive
Nup160,DRSC02774,1.36e6,1.57e6,1.08e6,1.21e6,inactive
Cyt-b5-r,DRSC03308,1.65e6,1.69e6,1.38e6,1.55e6,inactive
CG1927,DRSC08146,1.36e6,1.44e6,1.25e6,1.24e6,inactive
brat,DRSC03497,1.41e6,1.45e6,1.20e6,1.22e6,inactive
CG12607,DRSC08287,1.66e6,1.62e6,1.17e6,1.25e6,inactive
Gug,DRSC11179,1.34e6,1.40e6,1.09e6,1.11e6,inactive
goe,DRSC19345,1.54e6,1.47e6,1.13e6,1.10e6,inactive
wrd,DRSC16337,6.34e5,6.14e5,4.44e5,6.14e5,active
wrd,DRSC16344,1.39e6,1.53e6,1.02e6,1.06e6,inactive
FipoQ,DRSC15413,4.76e5,,7.93e5,,inactive
CG5543,DRSC04511,1.31e6,1.39e6,1.06e6,1.05e6,inactive
Nup93-2,DRSC16221,1.43e6,1.45e6,1.18e6,1.26e6,inactive
xit,DRSC18364,5.42e5,,8.68e5,,inactive
CG12129,DRSC06105,1.34e6,1.38e6,1.10e6,1.16e6,inactive
Ir21a,DRSC00528,1.50e6,1.51e6,1.10e6,1.20e6,inactive
CG11912,DRSC00332,1.21e6,1.42e6,1.06e6,1.04e6,inactive
CG13305,DRSC09975,1.64e6,1.68e6,1.04e6,1.04e6,inactive
CG14743,DRSC06479,1.60e6,1.66e6,1.33e6,1.51e6,inactive
al,DRSC00799,1.61e6,1.70e6,1.13e6,1.28e6,inactive
kappaB-Ras + CG30503,DRSC06619,1.53e6,1.56e6,1.23e6,1.35e6,inactive
kappaB-Ras + CG30503,DRSC07636,1.58e6,1.64e6,1.23e6,1.34e6,inactive
CG14957,DRSC08416,1.59e6,1.59e6,1.12e6,1.29e6,inactive
CG34115,DRSC03840,5.76e5,,8.44e5,,inactive
mRpL50,DRSC11015,1.46e6,1.57e6,1.16e6,1.11e6,inactive
CG32107,DRSC09221,1.43e6,1.38e6,1.11e6,1.17e6,inactive
fray,DRSC16950,1.13e6,1.24e6,1.03e6,1.07e6,inactive
CG13476,DRSC10019,1.39e6,1.59e6,1.23e6,1.28e6,inactive
Rbcn-3B,DRSC18574,1.37e6,1.39e6,1.04e6,1.11e6,inactive
CG15445,DRSC20517,1.47e6,1.45e6,8.30e5,9.65e5,inactive
AdamTS-A,DRSC14992,1.44e6,1.73e6,1.35e6,1.43e6,inactive
AdamTS-A,DRSC15966,1.51e6,1.57e6,1.14e6,1.33e6,inactive
CG16953,DRSC15167,1.58e6,1.60e6,1.35e6,1.38e6,inactive
Sgs4,DRSC18715,1.56e6,1.56e6,1.07e6,1.28e6,inactive
Or65a,DRSC08808,1.46e6,1.38e6,1.09e6,1.26e6,inactive
CG1309,DRSC08302,1.36e6,1.45e6,1.23e6,1.24e6,inactive
CG11854,DRSC14409,1.75e6,1.71e6,1.02e6,1.16e6,inactive
SdhB,DRSC05018,1.41e6,1.53e6,1.06e6,1.12e6,inactive
CG17470,DRSC02621,1.22e6,1.46e6,1.10e6,1.14e6,inactive
CG18557,DRSC00524,1.58e6,1.62e6,1.33e6,1.25e6,inactive
CG10877,DRSC14274,1.34e6,1.50e6,1.05e6,1.14e6,inactive
CG8260,DRSC20098,1.52e6,1.50e6,1.07e6,1.16e6,inactive
put,DRSC17039,1.45e6,1.50e6,1.19e6,1.26e6,inactive
dysf,DRSC14529,1.45e6,1.61e6,1.05e6,1.17e6,inactive
dysf,DRSC14895,1.54e6,1.56e6,9.26e5,1.04e6,inactive
dysf,DRSC14896,1.46e6,1.54e6,1.05e6,1.15e6,inactive
dysf,DRSC14897,1.45e6,1.56e6,6.35e5,7.29e5,active
CG5078,DRSC11762,1.37e6,1.43e6,1.34e6,1.36e6,inactive
Oseg1,DRSC10776,1.37e6,1.45e6,1.15e6,1.12e6,inactive
CG9672,DRSC20201,1.57e6,1.67e6,1.05e6,1.23e6,inactive
Nepl10,DRSC07212,1.74e6,1.89e6,1.42e6,1.60e6,inactive
ArfGAP3,DRSC11794,1.59e6,1.58e6,1.19e6,1.21e6,inactive
jbug,DRSC03952,5.27e5,,8.54e5,,inactive
jbug,DRSC04114,1.35e6,1.42e6,1.05e6,1.17e6,inactive
jbug,DRSC04167,1.86e6,1.85e6,1.25e6,1.34e6,inactive
jbug,DRSC04388,1.68e6,1.71e6,1.38e6,1.49e6,inactive
CG14143,DRSC10146,1.21e6,1.24e6,1.26e6,1.31e6,inactive
Ten-m,DRSC11664,1.42e6,1.42e6,1.41e6,1.49e6,inactive
Ten-m,DRSC11882,1.39e6,1.42e6,1.41e6,1.51e6,inactive
CG40245 (retired record),DRSC21012,1.22e6,1.56e6,1.17e6,1.19e6,inactive
CG4907,DRSC15673,1.64e6,1.61e6,1.02e6,1.14e6,inactive
CG31296,DRSC13092,1.38e6,1.63e6,1.08e6,1.19e6,inactive
Ret,DRSC03409,1.40e6,1.45e6,1.12e6,1.01e6,inactive
Ret,DRSC03410,1.78e6,1.86e6,1.28e6,3.05e5,inactive
Nup154,DRSC03384,1.18e6,1.35e6,9.41e5,1.00e6,inactive
beat-IIIa,DRSC01575,1.47e6,1.47e6,9.16e5,1.08e6,inactive
beat-IIIa,DRSC01577,1.53e6,1.59e6,9.50e5,1.17e6,inactive
beat-IIIa,DRSC02178,1.62e6,1.65e6,1.32e6,1.44e6,inactive

Sorted by “Kc cell number, rep 2” (low to high): some entries from above
target gene,dsRNA,"Kc cell number, rep 1","Kc cell number, rep 2","S2R+ cell number, rep 1","S2R+ cell number, rep 2",Outcome
Ten-m,DRSC11882,1.39e6,1.42e6,1.41e6,1.51e6,inactive
CG40245 (retired record),DRSC21012,1.22e6,1.56e6,1.17e6,1.19e6,inactive
CG4907,DRSC15673,1.64e6,1.61e6,1.02e6,1.14e6,inactive
CG31296,DRSC13092,1.38e6,1.63e6,1.08e6,1.19e6,inactive
